Measurements published in publication PMC9277888, “The testis-specific E3 ubiquitin ligase RNF133 is required for fecundity in mice” (BMC Biology, 2022).
These are yes or no findings as the source states them, for the method shown. In cells and extracts the contact can be indirect. Some results given as binding are weak or reduced against the parent protein; the word gives no strength. Where a sequence is shown, tags or fusion partners need not be part of it.

By UniProt entry, the sequences of proteins in these tests, tags left out.
UniProt O00762: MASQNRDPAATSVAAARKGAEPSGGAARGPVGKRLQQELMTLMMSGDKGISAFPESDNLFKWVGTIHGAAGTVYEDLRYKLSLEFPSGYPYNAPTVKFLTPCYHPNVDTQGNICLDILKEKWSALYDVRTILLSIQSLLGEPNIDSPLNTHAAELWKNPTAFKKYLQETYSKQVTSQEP

T1: human HA-UBE2J1 (human, UniProt Q9Y385 1-318)
T1 construct: E2 ubiquitin-conjugating enzyme UBE2J1, human, full-length open reading frame; also called pCAG-humanUBE2J1; source: HEK293 cells, transfected (pCAG1.1, Lipofectamine 3000), in lysate; not shown: HA, N-terminal, kept
T1 sequence (looked up): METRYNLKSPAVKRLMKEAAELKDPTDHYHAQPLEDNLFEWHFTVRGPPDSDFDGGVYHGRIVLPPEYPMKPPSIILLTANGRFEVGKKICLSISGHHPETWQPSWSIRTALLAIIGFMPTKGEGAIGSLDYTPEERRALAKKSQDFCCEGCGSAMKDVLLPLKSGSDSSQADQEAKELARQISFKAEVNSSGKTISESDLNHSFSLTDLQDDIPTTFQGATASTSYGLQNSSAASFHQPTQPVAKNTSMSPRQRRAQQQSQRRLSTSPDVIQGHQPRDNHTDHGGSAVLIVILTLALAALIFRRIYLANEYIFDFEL


What was measured:
[1] = target: human HA-UBE2C (human) (UniProt O00762); assay: co-IP; HEK293 cells co-transfected with FLAG-tagged E3 and HA-tagged E2; lysed by sonication in Pierce IP buffer (25 mM Tris-HCl pH 7.4, 150 mM NaCl, 1 mM EDTA, 1% NP-40, 5% glycerol); anti-HA magnetic beads, 4 C, 1 h; washed with IP buffer with 2 mM DTT; immunoblot with anti-FLAG; band intensities by ImageJ (IP lane to input lane)
[2] = target: T1, human HA-UBE2J1; assay: as above

Row | Binder | binding [1] | binding [2]
1 | human RNF133-FLAG (RING finger protein 133) (enzyme, UniProt Q8WVZ7 1-376, looked up, also called human RNF133-WT; RNF133 wild-type; source: HEK293 cells, transfected (pCAG1.1, Lipofectamine 3000), in lysate; not shown: FLAG, C-terminal, kept) MHLLKVGTWRNNTASSWLMKFSVLWLVSQNCCRASVVWMAYMNISFHVGNHVLSELGETGVFGRSSTLKRVAGVIVPPEGKIQNACNPNTIFSRSKYSETWLALIERGGCTFTQKIKVATEKGASGVIIYNVPGTGNQVFPMFHQAFEDVVVVMIGNLKGTEIFHLIKKGVLITAVVEVGRKHIIWMNHYLVSFVIVTTATLAYFIFYHIHRLCLARIQNRRWQRLTTDLQNTFGQLQLRVVKEGDEEINPNGDSCVICFERYKPNDIVRILTCKHFFHKNCIDPWILPHGTCPICKCDILKVLGIQVVVENGTEPLQVLMSNELPETLSPSEEETNNEVSPAGTSDKVIHVEENPTSQNNDIQPHSVVEDVHPSP | binds | –
2 | human RNF151-FLAG (RING finger protein 151) (enzyme, UniProt Q2KHN1 1-245) MGGGYDLNLFASPPDSNFVCSVCHGVLKRPARLPCSHIFCKKCILRWLARQKTCPCCRKEVKRKKVVHMNKLRKTIGRLEVKCKNADAGCIVTCPLAHRKGHQDSCPFELTACPNEGCTSQVPRGTLAEHRQHCQQGSQQRCPLGCGATLDPAERARHNCYRELHNAWSVRQERRRPLLLSLLRRVRWLDQATSVVRRELAELSNFLEEDTALLEGAPQEEAEAAPEGNVGAEVVGEPRANIPCK | – | no binding
